Measured values taken from patent CN112538115A.
Results are given in words; binding and its absence hold for the method and conditions named. Some results given as binding are weak or reduced against the parent protein; the word gives no strength.

By UniProt entry, the sequences of proteins in these tests, tags left out. Residues count along the entry.
UniProt Q02223, residues 1-54: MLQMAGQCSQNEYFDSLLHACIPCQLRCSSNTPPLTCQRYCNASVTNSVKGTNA

Target: 人BCMA-His抗原 (ACRO, Cat#BCA-H522y) (human) (UniProt Q02223)
Test: indirect ELISA, human BCMA-His coated at 2 ug/ml, detection with HRP goat anti-human Fc gamma

- binding: binds
B1: BCMA Benchmark1 (antibody sequence of GSK2857916, Glaxo Smith Kline) (antibody, human IgG1, kappa, V domains shown)
VH: QVQLVQSGAEVKKPGSSVKVSCKASGGTFSNYWMHWVRQAPGQGLEWMGATYRGHSDTYYNQKFKGRVTITADKSTSTAYMELSSLRSEDTAVYYCARGAIYDGYDVLDNWGQGTLVTVSS
VL: DIQMTQSPSSLSASVGDRVTITCSASQDISNYLNWYQQKPGKAPKLLIYYTSNLHSGVPSRFSGSGSGTDFTLTISSLQPEDFATYYCQQYRKLPWTFGQGTKLEIKR
